Reference: PubChem BioAssay AID2685 (National Center for Advancing Translational Sciences (NCATS), 2010)
The other results are listed elsewhere or left out. These are further read-outs of the screen, such as a control signal, another cell line or another target. No call is given for them. The list favours compounds with an active or inconclusive main result. The note in brackets gives the kind of curve behind each potency; many fits are weak.

Experiment: qHTS Assay for Lipid Storage Modulators in Drosophila S3 Cells;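 on cell number change: cells counted by Cell Tracker Red CMTPX staining in the red channel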
Conditions: BODIPY lipid droplet fluorescence, 18-24 h; for cell number change: measured here: cell count max response, cells fed with added oleic acid
Summary of the method: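 Drosophila S3 cells loaded with oleic acid (400 uM, as added) and compounds at several concentrations; lipid droplets imaged by 488-nm laser-scanning cytometry, 500–530 nm intensity and object ratio to cell channel. Percent activity normalized to 20 uM Triacsin C.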

[1] = measured here: lipid fluorescence (Fed channel) AC50, cells fed with added oleic acid
[2] = measured here: cell number channel AC50, cells fed with added oleic acid

Row | SMILES | cell number change | AC50 [1] | AC50 [2]
1 | COc1ccc(N(C(=O)CNC(=O)c2cccs2)C(C(=O)NC2CCCC2)c2ccncc2)cc1 (stereo unspecified) | 5.13% | 18.4 µM [rising, single point] | –
2 | CCNc1nc(NCC)n2c(SCc3nc4ccccc4c(=O)[nH]3)nnc2n1 | 114% | 1.84 µM [rising, partial curve] | 1.46 µM [rising, full curve]
3 | COc1ccc(-c2cc(C(=O)Nc3cc(C)on3)c3ccccc3n2)c(OC)c1 | 20.8% | 6.51 µM [rising, single point] | –
4 | O=C(NCCC(=O)N(CCc1ccccc1)Cc1ccccc1)c1ccc(Br)cc1 | 30.9% | 2.31 µM [rising, partial curve] | 2.31 µM [rising, full curve]
5 | Cn1c(N)c(C(=O)COC(=O)C2CC(=O)N(Cc3ccccc3)C2)c(=O)n(C)c1=O (stereo unspecified) | 32.2% | 0.326 µM [rising, full curve, poor fit] | 3.26 µM [falling, single point]
6 | Cc1ccc(-c2nn(-c3ccc(F)cc3)cc2C(=O)N2CCN(C3CCS(=O)(=O)C3)CC2)cc1 (stereo unspecified) | -1.47% | – | –
7 | COC(=O)c1cc(NC2c3ccccc3C(=O)N2Cc2ccco2)cc(C(=O)OC)c1 (stereo unspecified) | 1.23% | 13 µM [rising, single point] | –
8 | O=C1CC(c2ccc(F)cc2)SC(N(c2ccccc2)c2ccccc2)=N1 (stereo unspecified) | 21.5% | 25.9 µM [falling, single point] | –
9 | COc1cc(/C=C2\SC(=S)N(NC(=O)c3cccc(O)c3)C2=O)ccc1O | -89.2% | 3.26 µM [falling, full curve] | 3.66 µM [falling, full curve]
10 | Cc1cccc(C(CC(=O)O)n2cccc2)c1 (stereo unspecified) | -44.1% | 16.4 µM [falling, single point] | 2.91 µM [falling, full curve]
11 | Cc1cc(CN2CCCC(C(=O)Nc3ccc(-c4nc5ccccc5[nH]4)cc3)C2)n[nH]1 (stereo unspecified) | -23.3% | 29.1 µM [rising, single point] | –
12 | O=C1Nc2ccccc2O/C1=C\c1ccccc1 | -2.82% | 1.3 µM [rising, full curve] | –
13 | CCOc1ccccc1CN1CCNC(=O)C1CC(=O)N(C)Cc1nonc1C (stereo unspecified) | 5.95% | 29.1 µM [rising, single point] | –
14 | O=C(NC(CSCc1ccccc1)C(=O)N/N=C/c1ccc(O)cc1O)c1ccc([N+](=O)[O-])cc1 (stereo unspecified) | -33.2% | 0.461 µM [falling, full curve] | 6.51 µM [falling, full curve, poor fit]
15 | CCOC(=O)[C@H]1CCC[C@@H](NS(=O)(=O)c2ccc(NC(C)=O)cc2)C1 | 70.4% | 6.51 µM [rising, single point] | 16.4 µM [rising, partial curve]
16 | O=C(Nc1ccc(Oc2ccccc2)cc1)C1CCN(c2c3c(nc4ncnn24)CCC3)CC1 | -60.4% | 18.4 µM [falling, partial curve] | 18.4 µM [falling, partial curve]
17 | O=C(Cc1c(Cl)cccc1Cl)N/N=C/c1cccnc1 | 15% | 18.4 µM [rising, single point] | –
18 | COc1ccc(NC(=O)CN2C(=O)COc3ccc(S(=O)(=O)N4CCCCC4)cc32)c(OC)c1 | 12.4% | – | –
19 | CCOC(=O)N1CCN(C(=S)Nc2ccc3nc(N4CCN(CC)CC4)cc(C)c3c2)CC1 | -7.65% | – | –
20 | Cc1cccc(-c2nn(-c3ccccc3)cc2C(=O)N2CCN(C3CCS(=O)(=O)C3)CC2)c1 (stereo unspecified) | -7.77% | 0.517 µM [falling, full curve] | –
21 | CCOC(=O)C1CCCCN1C(=O)CCc1c(C)nc2cc(-c3ccccc3)nn2c1C (stereo unspecified) | -41.1% | – | 23.1 µM [falling, single point]
22 | CC(C)(C)NS(=O)(=O)c1ccc(CCC(=O)NCc2ccccn2)cc1 | -10.5% | 0.651 µM [rising, full curve] | –
23 | COc1ccccc1N=C1SCC(=O)N1c1ccccc1OC | -16.2% | 1.64 µM [rising, partial curve] | –
24 | C/C(=N\O)c1oc2ccc3c(C)cc(=O)oc3c2c1C | 14.8% | 29.1 µM [rising, single point] | 1.3 µM [rising, full curve]
25 | COCc1cc(C)nc(SCc2ccccc2Cl)c1C#N | -11.1% | 6.51 µM [falling, partial curve] | –
26 | CCC(C)(C)NC(=O)c1ccc2c(c1)N(CC(=O)N1CCCC1)C(=O)C(C)(C)O2 | 21.9% | 0.58 µM [falling, single point] | –
27 | CC(=O)/C(=N\Nc1ccccc1Cl)Sc1cccc2cccnc12 | -17.6% | 32.6 µM [falling, single point] | –
28 | Cc1ccccc1-n1c(=S)[nH]c2nc3c(cc2c1=O)COC(C)(C)C3 | -25.1% | 1.64 µM [falling, partial curve, poor fit] | –

Entries above with a Cl atom (three):
Row | SMILES | cell number change | AC50 [1] | AC50 [2]
17 | O=C(Cc1c(Cl)cccc1Cl)N/N=C/c1cccnc1 | 15% | 18.4 µM [rising, single point] | –
25 | COCc1cc(C)nc(SCc2ccccc2Cl)c1C#N | -11.1% | 6.51 µM [falling, partial curve] | –
27 | CC(=O)/C(=N\Nc1ccccc1Cl)Sc1cccc2cccnc12 | -17.6% | 32.6 µM [falling, single point] | –

The list goes on.

Row | SMILES | cell number change | AC50 [1] | AC50 [2]
29 | COC(=O)C1CCN(C(=O)COC(=O)c2ccc3[nH]c4c(c3c2)CCCC4)CC1 | -32.8% | – | 13 µM [falling, partial curve, poor fit]
30 | CCN(C(=O)c1ccc2c(Cl)c3c(nc2c1)CCC3)c1ccc(C)c(C)c1 | -45.8% | 2.59 µM [rising, partial curve] | 25.9 µM [falling, partial curve, poor fit]
31 | O=C(COc1ccc2c(c1)C(=O)CC1(CCCCC1)O2)NCc1ccccn1 | 33.7% | 29.1 µM [rising, single point] | 4.11 µM [rising, full curve, poor fit]
32 | COc1ccc(CNC(=O)c2c(O)c3cc(OC)c(OC)cc3[nH]c2=O)cc1OC | -22.8% | 6.51 µM [falling, single point] | 1.3 µM [falling, partial curve]
33 | CN1C(=O)C(O)(CC(=O)/C=C\c2ccc3c(c2)OCO3)c2ccccc21 (stereo unspecified) | – | 2.59 µM [falling, partial curve] | –
34 | Cc1ccc(S(=O)(=O)N(CC2CO2)c2cc(Cl)ccc2Cl)cc1 (stereo unspecified) | -2.86% | 3.66 µM [falling, partial curve] | –
35 | COc1ccccc1NC(=O)N(Cc1ccc2c(c1)OCO2)Cc1nc2ccccc2c(=O)[nH]1 | 27.9% | 0.461 µM [rising, full curve] | –
36 | COC(=O)c1ccc(C)c(NC(=O)c2nn(C)c(=O)c3ccccc23)c1 | 68.5% | 0.82 µM [rising, full curve] | 0.058 µM [rising, full curve, poor fit]
37 | CC(=O)Nc1ccc(S(=O)(=O)NC2CCCCCC2)cc1 | 4.2% | – | –
38 | Cc1ccc(S(=O)(=O)N2CCCCC2)cc1NC(=O)CSc1ncn[nH]1 | 19% | 0.092 µM [rising, full curve, poor fit] | –
39 | CN1CCN(CCCNC(=O)CCC(=O)N2CCOc3ccccc32)CC1 | 11.2% | 16.4 µM [rising, single point] | –
40 | Cc1ccc(CNC(=O)COC(=O)C2CC2)cc1 | -39.9% | 14.6 µM [falling, single point] | 20.6 µM [falling, single point]
41 | O=C(O)c1cc(=O)c2cc(Cl)ccc2o1 | – | 6.51 µM [falling, full curve] | –
42 | Cc1ccccc1NC(=O)Cc1nc(COC(=O)c2ccc(S(C)(=O)=O)c([N+](=O)[O-])c2)cs1 | -38.5% | 0.411 µM [falling, full curve] | 11.6 µM [falling, partial curve]
43 | CC(=O)c1ccc(N2CCN(C(=O)CCS(=O)(=O)c3ccc(C)cc3)CC2)cc1 | -15.4% | 2.31 µM [rising, partial curve] | –
44 | CN(CCC(=O)Nc1cc(S(=O)(=O)N(C)C)ccc1Cl)CC(=O)Nc1ccc(F)cc1 | 10.3% | 6.51 µM [rising, single point] | –
45 | Cc1cccc(C(=O)Nc2sc(C(=O)N3CCCC3)c(C)c2C#N)c1 | 14% | 0.116 µM [falling, full curve, poor fit] | –
46 | CCn1c(OC)nc2c1c(=O)n(C)c(=O)n2C | 13.3% | 0.731 µM [rising, partial curve] | –
47 | COc1ccccc1NC(=O)C1CC(=O)N(c2ccc(F)cc2)C1 (stereo unspecified) | – | 0.58 µM [falling, single point] | –
48 | CC(C)n1c(-c2ccc(C(C)(C)C)cc2)n[nH]c1=S | -33.9% | – | –
49 | CCOc1ccc(CCNC(=O)c2nn(C)c3c2CS(=O)(=O)c2ccccc2-3)cc1OCC | – | 4.11 µM [rising, single point] | 0.146 µM [rising, full curve, poor fit]
50 | CCN(CC(=O)NCc1cccs1)CC(=O)Nc1cccc(S(N)(=O)=O)c1 | -5.51% | – | –
51 | Cc1ccc(S(=O)(=O)NCCNc2ccc([N+](=O)[O-])cc2C(F)(F)F)cc1 | -0.197% | – | –
52 | COCCn1c(-c2ccccc2)nc2ccccc21 | 4.7% | 0.0058 µM [rising, full curve, poor fit] | –
53 | Cn1c2ccccc2c2cc(/C=N/NC(=O)c3ccc(O)cc3O)ccc21 | -38.8% | – | 17.8 µM [falling, partial curve]
54 | CCc1ccc(NC(=O)NNC(=O)c2ccc3ccccc3c2O)cc1 | 31% | 0.13 µM [rising, full curve, poor fit] | 1.64 µM [rising, partial curve, poor fit]
55 | O=C(NC1CCSc2ccccc21)c1ccc(C(F)(F)F)cc1 (stereo unspecified) | 52.1% | – | 29.1 µM [rising, single point]

Of the compounds above, 2 have a furan ring, fused or not:
Row | SMILES | cell number change | AC50 [1] | AC50 [2]
7 | COC(=O)c1cc(NC2c3ccccc3C(=O)N2Cc2ccco2)cc(C(=O)OC)c1 (stereo unspecified) | 1.23% | 13 µM [rising, single point] | –
24 | C/C(=N\O)c1oc2ccc3c(C)cc(=O)oc3c2c1C | 14.8% | 29.1 µM [rising, single point] | 1.3 µM [rising, full curve]
